Data source: PubChem BioAssay AID602196 (INSERM, 2012)

- Assay: 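Modifiers of cisplatin sensitivity in A549 cells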
- Cells: human A549 lung cancer cells
- Reagents: siRNA pair against human genes
- Timing: 48 h transfection before cisplatin; time from cisplatin to read-out not stated
- Treatment: cisplatin at a dose killing half of control-siRNA cells; exact dose and duration not given
- Detection: 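Cisplatin cell death as a shift from the 50% death seen with control siRNA; siRNAs toxic or growth-blocking alone scored 0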
- Scale: two-siRNA summed score (-2 to +2): higher = both siRNAs protect from cisplatin killing; -2 means both sensitise; mean protection from cisplatin (shift in death): higher = protection from cisplatin killing
- Hit rule: 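siRNAs harmful alone (LDH or WST-1) get 0; others get +1 for less and -1 for more cisplatin killing; genes are active when the two siRNAs give the same sign, summing to ±2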
- Calls: active = both siRNAs shift cisplatin killing the same way; inactive = no consistent shift, or siRNA harmful alone
Shown is an unselected part of about 23,000 reagents tested. 455 of them (2%) count as active. 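Active includes both protection and sensitisation; some change values fall well beyond the stated -50 to +50 range.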 Further read-outs or replicates are left out here. No sequences are given here. The record does not give: the amount of reagent.

TRPV1
- two-siRNA summed score (-2 to +2): -1
- mean protection from cisplatin (shift in death) (%): -12.3
- outcome: inactive

OFD1
- two-siRNA summed score (-2 to +2): 0
- mean protection from cisplatin (shift in death) (%): -1.4
- outcome: inactive

PRCP
- two-siRNA summed score (-2 to +2): 0
- mean protection from cisplatin (shift in death) (%): -4.8
- outcome: inactive

SULT1B1
- two-siRNA summed score (-2 to +2): 0
- mean protection from cisplatin (shift in death) (%): 13.1
- outcome: inactive

LOC442059
- two-siRNA summed score (-2 to +2): 0
- mean protection from cisplatin (shift in death) (%): 3
- outcome: inactive

CCDC28B
- two-siRNA summed score (-2 to +2): 0
- mean protection from cisplatin (shift in death) (%): 3.7
- outcome: inactive

DUX5
- two-siRNA summed score (-2 to +2): 0
- mean protection from cisplatin (shift in death) (%): 27.5
- outcome: inactive

AGRP
- two-siRNA summed score (-2 to +2): 0
- mean protection from cisplatin (shift in death) (%): -4.4
- outcome: inactive

LOC391705
- two-siRNA summed score (-2 to +2): 0
- mean protection from cisplatin (shift in death) (%): 6.4
- outcome: inactive

An excerpt from above, limited to “two-siRNA summed score (-2 to +2)”.
CCDC28B	0
DUX5	0
AGRP	0

Additional records follow:
CCDC22
- two-siRNA summed score (-2 to +2): 0
- mean protection from cisplatin (shift in death) (%): -4.6
- outcome: inactive

TSHZ2
- two-siRNA summed score (-2 to +2): 0
- mean protection from cisplatin (shift in death) (%): 2
- outcome: inactive

CELF5
- two-siRNA summed score (-2 to +2): -1
- mean protection from cisplatin (shift in death) (%): -1.2
- outcome: inactive

PGAP2
- two-siRNA summed score (-2 to +2): 0
- mean protection from cisplatin (shift in death) (%): -6.1
- outcome: inactive

LOC389295
- two-siRNA summed score (-2 to +2): 0
- mean protection from cisplatin (shift in death) (%): -8.1
- outcome: inactive

TGOLN2
- two-siRNA summed score (-2 to +2): 0
- mean protection from cisplatin (shift in death) (%): 0.9
- outcome: inactive

SLC25A25
- two-siRNA summed score (-2 to +2): 0
- mean protection from cisplatin (shift in death) (%): 2.1
- outcome: inactive

NOP56
- two-siRNA summed score (-2 to +2): 0
- mean protection from cisplatin (shift in death) (%): -4.6
- outcome: inactive

CTU1BP
- two-siRNA summed score (-2 to +2): -1
- mean protection from cisplatin (shift in death) (%): -10.2
- outcome: inactive

TAF5L
- two-siRNA summed score (-2 to +2): 0
- mean protection from cisplatin (shift in death) (%): -7.1
- outcome: inactive

DENND1C
- two-siRNA summed score (-2 to +2): 0
- mean protection from cisplatin (shift in death) (%): -8.7
- outcome: inactive

MAP4K3
- two-siRNA summed score (-2 to +2): 0
- mean protection from cisplatin (shift in death) (%): -0.8
- outcome: inactive
